Assay in all cases: pull-down; GST or GST-Nlg1 proteins (0.64 nmol/200 µl) on glutathione magnetic beads in PBS pH 7.4, 0.01% BSA, 0.01% Tween-20; incubated 20 min at RT with COS-7 lysate containing gephyrin-Venus (200 µl/tube); eluted with glutathione; anti-gephyrin immunoblot; only the target purified
One test addresses T1, GST-Nlg1-Y782A (mouse) (UniProt Q99K10).
T1 sequence: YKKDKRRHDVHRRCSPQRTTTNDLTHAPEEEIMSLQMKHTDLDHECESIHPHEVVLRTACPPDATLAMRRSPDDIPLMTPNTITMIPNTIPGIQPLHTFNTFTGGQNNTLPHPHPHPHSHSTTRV

A further test deals with T2, GST-Nlg1-Y782F (mouse) (UniProt Q99K10).
T2 sequence: T1 sequence with A64F

The target in test [1] is T3, GST-Nlg1-WT (GST fused to the intracellular domain of neuroligin-1) (mouse) (UniProt Q99K10).
T3 sequence: T1 sequence with A64Y

Data on one molecule can be found in PMC6162332.

Changes are numbered by the printed parent chain. These are yes or no findings as the source states them, for the method shown. In cells and extracts the contact can be indirect. Some entries that bind do so weakly or less than the wild type. Sequences can lack the tags named with a protein.

B1: gephyrin-Venus (protein, UniProt Q03555 1-768)
chain: MATEGMILTNHDHQIRVGVLTVSDSCFRNLAEDRSGINLKDLVQDPSLLGGTISAYKIVPDEIEEIKETLIDWCDEKELNLILTTGGTGFAPRDVTPEKFPTFPFCGLQKGATKEVIEREAPGMALAMLMGSLNVTPLGMLSRPVCGIRGKTLIINLPGSKKGSQECFQFILPALPHAIDLLRDAIVKVKEVHDELEDLPSPPPPLSPPPTTSPHKQTEDKGVQCEEEEEEKKDSGVASTEDSSSSHITAAALAAKIPDSIISRGVQVLPRDTASLSTTPSESPRAQATSRLSTASCPTPKQIRRPDESKGVASRVGSLKVQSRCSSKENILRASHSAVDITKVARRHRMSPFPLTSMDKAFITVLEMTPVLGTEIINYRDGMGRVLAQDVYAKDNLPPFPASVKDGYAVRAADGPGDRFIIGESQAGEQPTQTVMPGQVMRVTTGAPIPCGADAVVQVEDTELIRESDDGTEELEVRILVQARPGQDIRPIGHDIKRGECVLAKGTHMGPSEIGLLATVGVTEVEVNKFPVVAVMSTGNELLNPEDDLLPGKIRDSNRSTLLATIQEHGYPTINLGIVGDNPDDLLNALNEGISRADVIITSGGVSMGEKDYLKQVLDIDLHAQIHFGRVFMKPGLPTTFATLDIDGVRKIIFALPGNPVSAVVTCNLFVVPALRKMQGILDPRPTIIKARLSCDVKLDPRPEYHRCILTWHHQEPLPWAQSTGNQMSSRLMSMRSANGLLMLPPKTEQYVELHKGEVVDVMVIGRL
Take B1: the figures for the binding entry (in the test with GST-Nlg1-Y782A (mouse); with GST-Nlg1-Y782F (mouse); in test [1]) were “no binding”, “binds” and “binds”, respectively.
